Experimental data reported in patent publication US20250011418A1 (ZIELBIO, published 2025).
No constants are given. Whether binding was seen depends on the method and setting. Some results given as binding are weak or reduced against the parent protein; the word gives no strength.

Experiments:
[1] = target: Reb-His (Reb, a sub-fragment of Sec8, tagged with a polyhistidine (His) tag); assay: ELISA on Reb-His
[2] = target: Sec8-His (section 8 (Sec8), an antigenic region of CSP-1, tagged with a polyhistidine (His) tag); assay: ELISA on Sec8-His
[3] = target: Reb-His (Reb, a sub-fragment of Sec8, tagged with a polyhistidine (His) tag); assay: ELISA on REB-HIS, absorbance 650 nm against concentration in nM on a log axis
[4] = target: Sec8-His (section 8 (Sec8), an antigenic region of CSP-1, tagged with a polyhistidine (His) tag); assay: ELISA on Sec8-His (target per paragraph 36), absorbance 650 nm against concentration in nM on a log axis
[5] = target: Sec8-His (section 8 (Sec8), an antigenic region of CSP-1, tagged with a polyhistidine (His) tag); assay: BLI (Octet), single shot: antibody on anti-human IgG tips, 24 nM Sec8-His

Binder	binding [1]	binding [2]	binding [3]	binding [4]	binding [5]
murine anti-CSP-1 antibody 1H11 (antibody, V domains shown, Murine antibody; also called 1H11B5) VH: QIQLVQSGPELKKPGETVKISCKASGYTFTDYSMHWVKQAPGKGLKWMGWINTETGEPTYADDFKGRFAFSLETSASTAYLQINNLKNEDTATYFCAPGGFAYWGQGTLVTVSA VL: DIVMTQAAPSVPVTPGESVSISCRSSKSLLHSNGNTYLYWFLQRPGQSPQLLIYRMSNLASGVPDRFSGSGSGTAFTLRISRVEAEDVGVYYCMQHLEYPLTFGAGTKLELKR	binds	binds	binds	binds	
humanized anti-CSP-1 antibody, Antibody Number 42 (Table 1) (antibody, human IgG1, V domains shown, also called Antibody 42) VH: QIQLVQSGSELKKPGASVKVSCKASGYTFTDYSMHWVRQAPGQGLEWMGWINTETGEPTYAQGFTGRFVFSLDTSVSTAYLQISSLKAEDTAVYFCAPGGFAYWGQGTLVTVSS VL: DIVMTQSPLSLPVTPGEPASISCRSSKSLLHSNGNTYLYWFLQKPGQSPQLLIYRMSNLASGVPDRFSGSGSGTDFTLKISRVEAEDVGVYYCMQHLEYPLTFGAGTKLELK					binds
